Values of other authors in patent publication US7217770B2, “Stable polymeric micelle-type drug composition and method for the preparation thereof” (Samyang Corporation, priority 2000, dated 2007).

- solubility in water: less than 0.01 mg/mL
SMILES: CC(=O)O[C@H]1C(=O)[C@@]2(C)[C@H]([C@H](OC(=O)c3ccccc3)[C@]3(O)C[C@H](OC(=O)[C@H](O)[C@@H](NC(=O)c4ccccc4)c4ccccc4)C(C)=C1C3(C)C)[C@]1(OC(C)=O)CO[C@@H]1C[C@@H]2O [paclitaxel]
